Data: US9610310B2, “Pharmaceutical composition for preventing or treating inflammatory diseases or asthma, containing lagerstroemia ovalifolia extract or fraction thereof as active ingredient” (Korea Research Institute of Bioscience and Biotechnology, priority 2011, dated 2017)
At least one structure is not confirmed: it was looked up by name or label, or the drawing left a doubt.

Legend:
Assay type in all cases: in vivo, mouse
[1] = test system: ovalbumin-induced bronchial asthma in Balb/c mice; assay: Airway hypersensitivity (Penh, plethysmography) in ovalbumin-induced asthma mice; details: 30 mg/kg orally 1 hour before ovalbumin inhalation; methacholine challenge; FIG. 6
[2] = test system: ovalbumin-induced bronchial asthma in Balb/c mice; assay: Inflammatory cells in bronchoalveolar lavage fluid of ovalbumin-induced asthma mice; details: 30 mg/kg orally; versus OVA group; FIG. 7
[3] = test system: ovalbumin-induced bronchial asthma in Balb/c mice; assay: Cytokines in bronchoalveolar lavage fluid (ELISA) of ovalbumin-induced asthma mice; details: 30 mg/kg orally; versus OVA group; FIG. 8
[4] = test system: ovalbumin-induced bronchial asthma in Balb/c mice; assay: Histopathological examination of lung tissue (H & E staining); details: 30 mg/kg orally, FIG. 10

SMILES: CC(C)(O)c1ccccc1CC[C@@H](SCC1(CC(=O)O)CC1)c1cccc(/C=C/c2ccc3ccc(Cl)cc3n2)c1 [M, Montelukast]
- Penh value (airway hypersensitivity) versus asthma-induced group (OVA) [1]: significantly decreased
- total number of inflammatory cells in bronchoalveolar lavage fluid [2]: rapidly decreased
- production of cytokines in bronchoalveolar lavage fluid (IL-4, IL-5, IL-13, IL-6, IL-1beta, TNF-alpha) [3]: significantly decreased
- damage to epithelial cells (H & E staining) [4]: little or no damage to epithelial cells appeared
- inflammatory cells including eosinophils around bronchioles (H & E staining) ([4]; versus OVA group): significantly decreased
